Tested on: CfGluCl-1 (C. felis GluCl channel)
Assay: Two microelectrode voltage clamp of Xenopus oocytes expressing CfGluCl-1
Type: cell-based, Ctenocephalides felis
Conditions: holding potential 0 mV
Method: The full-length cDNA encoding CfGluCl-1 in plasmid vector pBluescript (Stratagene, LaJolla, Calif.) is linearized and capped cRNA transcripts are synthesized using appropriate oligonucleotide primers and the mMESSAGE mMACHINE in vitro RNA transcription kit (Ambion). Xenopus laevis oocytes were prepared and injected using standard methods as described (Arena et al., 1991, Mol. Pharmacol. 40: 368-374; Arena et al, 1992, Mol. Brain Res. 15: 339-348). Adult female Xenopus laevis were anesthetized with 0.17% tricaine methanesulfonate and the ovaries were surgically removed and placed in a dish consisting of (mM): NaCl 82.5, KCl 2, MgCl2 1, CaCl2 1.8, HEPES 5 adjusted to pH 7.5 with NaOH (OR-2). Ovarian lobes were broken open, rinsed several times, and gently shaken in OR-2 containing 0.2% collagenase (Sigma, Type IA) for 2-5 hours. When approximately 50% of the follicular layers were removed, Stage V and VI oocytes were selected and placed in media consisting of (mM): NaCl 86, KCl 2, MgCl2 1, CaCl2 1.8, HEPES 5, Na pyruvate 2.5, theophylline 0.5, gentamicin 0.1 adjusted to pH 7.5 with NaOH (ND-96) for […] before injection. For most experiments, oocytes were injected with 10 ng of cRNA in 50 nl of RNase free water. Control oocytes were injected with 50 nl of water. […]
Each curve represents the difference between the current measured with and without 10 μM glutamate. […]

Substance: ivermectin phosphate [IVM-PO4]
- n (exponent of equation (1)): 1.0

From US6358701B1, “DNA molecules encoding Ctenocephalides felis glutamate gated chloride channels” (Merck & Co., Inc., priority 1997, dated 2002)
